Drawing on paper PMC10874727, “The dual GGDEF/EAL domain enzyme PA0285 is a Pseudomonas species housekeeping phosphodiesterase regulating early attachment and biofilm architecture” (The Journal of Biological Chemistry, 2024), this text covers binding for three molecules.

Results are given in words; binding and its absence hold for the method and conditions named.

Experiment [1] deals with PA0285_(317-760), truncated PA0285 variant encompassing the GGDEF and EAL domains (Pseudomonas aeruginosa PAO1) (UniProt Q9I6K5). The experiment in a line: SEC; analytical SEC, Superdex 200 10/30 GL, 100 μl of 100 μM protein, 20 mM Hepes-Na pH 7.5, 150 mM NaCl, 4 °C, calibrated with ferritin, aldolase, conalbumin, ovalbumin, RNase A; both purified.
Experiment [2] concerns the target PA0285_(194-760), construct encompassing the second PAS domain that directly precedes the GGDEF/EAL tandem (Pseudomonas aeruginosa PAO1) (UniProt Q9I6K5). The experiment in a line: SEC-MALS; MALS and differential refractive index detectors after the Superdex 200 10/30 GL column, 100 μl of 100 μM protein, 20 mM Hepes-Na pH 7.5, 150 mM NaCl, 4 °C, Debye fitting; both purified. A general note: Size exclusion chromatography separates by hydrodynamic size, large species first.

Experiment [3] deals with PA0285_(353-508), the isolated GGDEF domain (Pseudomonas aeruginosa PAO1) (UniProt Q9I6K5). In words: SEC; analytical SEC, Superdex 200 10/30 GL, 100 μl of 100 μM protein, 20 mM Hepes-Na pH 7.5, 150 mM NaCl, 4 °C, calibrated with ferritin, aldolase, conalbumin, ovalbumin, RNase A; both purified.

B1: PA0285_(317-760), truncated PA0285 variant encompassing the GGDEF and EAL domains (domain or fragment, UniProt Q9I6K5 317-760)
chain: LSSIKRSENELDFLAHHDSLTGLPNRVLLRERIEQALENGKDRTVAGALLLIDLDHFKHINDSLGHTTGDMLLKEVSKRLQHQLDERCLLSRLGGDEFAILVENDDPEAVARLSQRILDGFNAPFDIHCQPIYISASLGVSLYPEDASDVDHLMQHADAALFQAKDSGRNAYAFYTRVLTARARAHVQVESALRHALEHDELRVHYQPVHDLASGRIVGVESLVRWQHPERGLVPPGEFVPVAEECGLIAALDNWVLKRACRQMREWQQRGVELEFVAVNVSSRLFNRGGLEERIANALEESGLEPRYLELEVTESAVMEDFEQSLNLLCRLRILGVNLAIDDFGTGYSSLMRLKRLPVHKLKIDQGFVAGLPGAVDDAAIARAIVALAQSMGLRVVAEGIEHQDQALFLREHGCDFGQGYWYGRPQPAEALRFDLPPVALPED
Turning to B1, in experiment [1], the binding result is “no binding (tested: 100 μM applied)”.

B2: PA0285_(194-760), construct encompassing the second PAS domain that directly precedes the GGDEF/EAL tandem (domain or fragment, UniProt Q9I6K5 194-760)
chain: DITLQRLKEDHLRQAAAVFDSTREGVLVTDAQAVIVHVNPSFERITGYRSEDVLGKTPAILRSGRQDQAFYQRLWLALREQDVWSGEIWNRRKSGEIYPQWLHIRAVRNDQGQLTHYVGVFSDLSSIKRSENELDFLAHHDSLTGLPNRVLLRERIEQALENGKDRTVAGALLLIDLDHFKHINDSLGHTTGDMLLKEVSKRLQHQLDERCLLSRLGGDEFAILVENDDPEAVARLSQRILDGFNAPFDIHCQPIYISASLGVSLYPEDASDVDHLMQHADAALFQAKDSGRNAYAFYTRVLTARARAHVQVESALRHALEHDELRVHYQPVHDLASGRIVGVESLVRWQHPERGLVPPGEFVPVAEECGLIAALDNWVLKRACRQMREWQQRGVELEFVAVNVSSRLFNRGGLEERIANALEESGLEPRYLELEVTESAVMEDFEQSLNLLCRLRILGVNLAIDDFGTGYSSLMRLKRLPVHKLKIDQGFVAGLPGAVDDAAIARAIVALAQSMGLRVVAEGIEHQDQALFLREHGCDFGQGYWYGRPQPAEALRFDLPPVALPED
Turning to B2, the binding entry in experiment [2] was “no binding (tested: 100 μM applied)”.

B3: PA0285_(353-508), the isolated GGDEF domain (domain or fragment, UniProt Q9I6K5 353-508)
chain: LENGKDRTVAGALLLIDLDHFKHINDSLGHTTGDMLLKEVSKRLQHQLDERCLLSRLGGDEFAILVENDDPEAVARLSQRILDGFNAPFDIHCQPIYISASLGVSLYPEDASDVDHLMQHADAALFQAKDSGRNAYAFYTRVLTARARAHVQVESA
As for B3, the binding result in experiment [3] is given as “no binding (tested: 100 μM applied)”.
